The target in test [1] is USP10, endogenous in CH12 cells (mouse (endogenous in CH12)) (UniProt P52479). In words: co-IP; endogenous proteins in CH12 cells stimulated with anti-CD40, IL-4, TGF-beta for 72 h; rabbit anti-USP10 or rabbit IgG with Protein G agarose beads; western blot.
Test [2] concerns the target USP10 as used in the GST pull-down assay (UniProt Q14694). In words: pull-down; GST pull-down assay; details not shown (Supplementary Fig. 1f).

The chains behind the UniProt entries cited, without tags or fusion partners.
UniProt P52479: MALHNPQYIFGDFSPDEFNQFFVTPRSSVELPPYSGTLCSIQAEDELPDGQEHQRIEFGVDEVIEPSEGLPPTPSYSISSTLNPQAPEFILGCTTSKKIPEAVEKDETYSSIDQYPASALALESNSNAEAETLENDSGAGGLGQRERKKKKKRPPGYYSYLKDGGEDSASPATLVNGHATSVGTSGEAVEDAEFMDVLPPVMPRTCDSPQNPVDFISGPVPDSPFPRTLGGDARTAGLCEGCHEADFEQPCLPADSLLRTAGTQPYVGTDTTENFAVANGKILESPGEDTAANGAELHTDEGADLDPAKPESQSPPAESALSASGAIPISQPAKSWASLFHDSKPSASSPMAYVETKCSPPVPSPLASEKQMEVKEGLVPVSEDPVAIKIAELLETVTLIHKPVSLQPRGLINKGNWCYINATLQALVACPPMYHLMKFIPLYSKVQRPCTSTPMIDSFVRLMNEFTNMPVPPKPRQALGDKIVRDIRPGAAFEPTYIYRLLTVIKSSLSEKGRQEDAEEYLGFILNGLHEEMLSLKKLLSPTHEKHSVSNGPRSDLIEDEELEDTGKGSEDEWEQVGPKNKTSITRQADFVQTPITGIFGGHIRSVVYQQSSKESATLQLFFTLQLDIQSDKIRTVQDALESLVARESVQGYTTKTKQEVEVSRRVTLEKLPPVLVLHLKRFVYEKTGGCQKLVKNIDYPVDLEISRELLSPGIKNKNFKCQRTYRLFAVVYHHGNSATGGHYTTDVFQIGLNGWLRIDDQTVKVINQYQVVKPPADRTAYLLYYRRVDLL
UniProt Q14694: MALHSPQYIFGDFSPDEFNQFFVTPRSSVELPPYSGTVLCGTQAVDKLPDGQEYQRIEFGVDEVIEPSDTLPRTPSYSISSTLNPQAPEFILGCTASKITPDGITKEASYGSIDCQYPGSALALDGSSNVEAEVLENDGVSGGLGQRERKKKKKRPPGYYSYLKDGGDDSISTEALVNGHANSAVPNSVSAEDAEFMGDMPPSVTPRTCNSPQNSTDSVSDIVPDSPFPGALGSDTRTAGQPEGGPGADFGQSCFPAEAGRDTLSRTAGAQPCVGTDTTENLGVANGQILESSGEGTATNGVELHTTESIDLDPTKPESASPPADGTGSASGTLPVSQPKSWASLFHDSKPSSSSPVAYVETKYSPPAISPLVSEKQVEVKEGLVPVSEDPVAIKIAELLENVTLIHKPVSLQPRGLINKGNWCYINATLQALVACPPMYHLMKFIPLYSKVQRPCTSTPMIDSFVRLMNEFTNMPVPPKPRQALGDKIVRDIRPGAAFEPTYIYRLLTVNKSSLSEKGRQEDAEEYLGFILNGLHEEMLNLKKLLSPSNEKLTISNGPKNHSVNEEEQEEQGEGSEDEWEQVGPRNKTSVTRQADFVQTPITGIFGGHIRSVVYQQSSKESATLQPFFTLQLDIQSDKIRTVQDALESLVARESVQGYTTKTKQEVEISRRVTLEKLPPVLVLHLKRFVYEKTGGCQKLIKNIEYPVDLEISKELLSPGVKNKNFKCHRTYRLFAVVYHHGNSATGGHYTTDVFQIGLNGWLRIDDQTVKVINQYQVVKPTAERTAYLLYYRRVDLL
UniProt Q9WVE0: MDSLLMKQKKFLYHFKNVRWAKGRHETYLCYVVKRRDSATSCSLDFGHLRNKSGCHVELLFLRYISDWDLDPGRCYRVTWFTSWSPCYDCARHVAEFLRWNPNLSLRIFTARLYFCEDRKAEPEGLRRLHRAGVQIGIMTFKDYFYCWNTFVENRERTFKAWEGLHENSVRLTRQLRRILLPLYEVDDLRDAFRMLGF
UniProt Q9GZX7: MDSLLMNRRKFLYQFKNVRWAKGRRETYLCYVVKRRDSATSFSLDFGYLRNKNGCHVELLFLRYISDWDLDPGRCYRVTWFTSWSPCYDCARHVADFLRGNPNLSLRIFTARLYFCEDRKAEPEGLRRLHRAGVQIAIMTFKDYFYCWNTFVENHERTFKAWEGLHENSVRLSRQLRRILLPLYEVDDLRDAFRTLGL

Results are given in words; binding and its absence hold for the method and conditions named. Binding seen in cells or lysates may run through a third protein. Some results given as binding are weak or reduced against the parent protein; the word gives no strength.

For “AID, endogenous in CH12 cells (from UniProt Q9WVE0 1-198) (enzyme)”, the binding result in test [1] was “binds”.

On to “AID as used in the GST pull-down assay (from UniProt Q9GZX7 1-198)”, for which the binding result in test [2] is recorded as “binds”.

The values above are taken from article PMC8724756.
